Reference: paper PMC6769930
These are yes or no findings as the source states them, for the method shown. In cells and extracts the contact can be indirect. Some binding calls cover weakened binding; strength is not graded here. Tags and fused reporters may be left off the sequences shown.

By UniProt entry, the sequences of proteins in these tests, tags left out.
UniProt P17931: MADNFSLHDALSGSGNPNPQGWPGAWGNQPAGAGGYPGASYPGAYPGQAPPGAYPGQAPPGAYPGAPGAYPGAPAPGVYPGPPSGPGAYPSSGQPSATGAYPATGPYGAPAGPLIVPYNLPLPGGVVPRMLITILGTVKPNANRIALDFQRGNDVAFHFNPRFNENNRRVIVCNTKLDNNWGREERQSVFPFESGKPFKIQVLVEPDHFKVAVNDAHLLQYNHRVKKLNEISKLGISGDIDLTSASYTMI
UniProt P19474: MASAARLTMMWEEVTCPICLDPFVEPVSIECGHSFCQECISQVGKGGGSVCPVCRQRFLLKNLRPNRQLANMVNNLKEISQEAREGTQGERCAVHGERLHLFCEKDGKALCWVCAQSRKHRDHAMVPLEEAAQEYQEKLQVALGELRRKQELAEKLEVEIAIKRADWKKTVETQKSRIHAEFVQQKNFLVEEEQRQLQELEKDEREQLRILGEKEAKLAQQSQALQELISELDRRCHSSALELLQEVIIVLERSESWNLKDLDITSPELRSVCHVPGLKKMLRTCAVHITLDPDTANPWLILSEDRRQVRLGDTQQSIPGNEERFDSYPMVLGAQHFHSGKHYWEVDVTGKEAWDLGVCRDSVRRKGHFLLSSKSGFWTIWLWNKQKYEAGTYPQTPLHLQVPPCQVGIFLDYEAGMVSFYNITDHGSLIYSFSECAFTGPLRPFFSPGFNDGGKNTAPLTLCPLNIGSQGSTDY

Tests used:
[1] = target: human galectin-3 from pcDNA3.1-Gal-3 (human) (UniProt P17931); assay: co-IP; CHO-K1 cells co-transfected with pcEXV-HA-EngFL and pcDNA3.1-Gal-3; lysis in 1% NP-40, 150 mM NaCl, 50 mM Tris pH 7.4; IP with anti-endoglin or anti-galectin-3 on protein G magnetic beads overnight at 4 °C; Western blot
[2] = target: human TRIM21 from pcDNA3.1-HA-hTRIM21 (human) (UniProt P19474); assay: co-IP; CHO-K1 cells co-transfected with pcDNA3.1-HA-hTRIM21 and pDisplay-HA-endoglin constructs (FL, EC, TMEC); IP with anti-TRIM21 or anti-endoglin on protein G magnetic beads; Western blot

Row | binding [1] | binding [2] | Binder
1 | binds |  | human endoglin, full-length, from pcEXV-HA-EngFL (receptor, UniProt P17813 26-658) ETVHCDLQPVGPERGEVTYTTSQVSKGCVAQAPNAILEVHVLFLEFPTGPSQLELTLQASKQNGTWPREVLLVLSVNSSVFLHLQALGIPLHLAYNSSLVTFQEPPGVNTTELPSFPKTQILEWAAERGPITSAAELNDPQSILLRLGQAQGSLSFCMLEASQDMGRTLEWRPRTPALVRGCHLEGVAGHKEAHILRVLPGHSAGPRTVTVKVELSCAPGDLDAVLILQGPPYVSWLIDANHNMQIWTTGEYSFKIFPEKNIRGFKLPDTPQGLLGEARMLNASIVASFVELPLASIVSLHASSCGGRLQTSPAPIQTTPPKDTCSPELLMSLIQTKCADDAMTLVLKKELVAHLKCTITGLTFWDPSCEAEDRGDKFVLRSAYSSCGMQVSASMISNEAVVNILSSSSPQRKKVHCLNMDSLSFQLGLYLSPHFLQASNTIEPGQQSFVQVRVSPSVSEFLLQLDSCHLDLGPEGGTVELIQGRAAKGNCVSLLSPSPEGDPRFSFLLHFYTVPIPKTGTLSCTVALRPKTGSQDQEVHRTVFMRLNIISPDLSGCTSKGLVLPAVLGITFGAFLIGALLTAALWYIYSHTRSPSKREPVVAVAAPASSESSSTNHSIGSTQSTPCSTSSMA
2 |  | binds | human endoglin extracellular region from pDisplay-HA-EngEC (domain or fragment, UniProt P17813 26-586) ETVHCDLQPVGPERGEVTYTTSQVSKGCVAQAPNAILEVHVLFLEFPTGPSQLELTLQASKQNGTWPREVLLVLSVNSSVFLHLQALGIPLHLAYNSSLVTFQEPPGVNTTELPSFPKTQILEWAAERGPITSAAELNDPQSILLRLGQAQGSLSFCMLEASQDMGRTLEWRPRTPALVRGCHLEGVAGHKEAHILRVLPGHSAGPRTVTVKVELSCAPGDLDAVLILQGPPYVSWLIDANHNMQIWTTGEYSFKIFPEKNIRGFKLPDTPQGLLGEARMLNASIVASFVELPLASIVSLHASSCGGRLQTSPAPIQTTPPKDTCSPELLMSLIQTKCADDAMTLVLKKELVAHLKCTITGLTFWDPSCEAEDRGDKFVLRSAYSSCGMQVSASMISNEAVVNILSSSSPQRKKVHCLNMDSLSFQLGLYLSPHFLQASNTIEPGQQSFVQVRVSPSVSEFLLQLDSCHLDLGPEGGTVELIQGRAAKGNCVSLLSPSPEGDPRFSFLLHFYTVPIPKTGTLSCTVALRPKTGSQDQEVHRTVFMRLNIISPDLSGCTSKG
